This series has as its system DNA endonuclease Q (EndoQ) (Pyrococcus furiosus). Nature of the series: stopped-flow FRET. To be noted: no significant cleavage; recombinant protein; protein details: N-terminal His tag (pET28c); label: 5'-FAM strand 1, 5'-BHQ1 strand 2.

For at least one entry, the source does not settle the construct or the ends of the probe.

Turning to “GCTCACGTACAGAGCTG (double strand) [C/G (undamaged)]”, the binding result is recorded as “binds”.

These data come from article PMC11354406.
